We go through one substance from article PMC12373997.

Sequences of proteins named here, by UniProt entry; tags and fusion partners are left off.
UniProt Q99871: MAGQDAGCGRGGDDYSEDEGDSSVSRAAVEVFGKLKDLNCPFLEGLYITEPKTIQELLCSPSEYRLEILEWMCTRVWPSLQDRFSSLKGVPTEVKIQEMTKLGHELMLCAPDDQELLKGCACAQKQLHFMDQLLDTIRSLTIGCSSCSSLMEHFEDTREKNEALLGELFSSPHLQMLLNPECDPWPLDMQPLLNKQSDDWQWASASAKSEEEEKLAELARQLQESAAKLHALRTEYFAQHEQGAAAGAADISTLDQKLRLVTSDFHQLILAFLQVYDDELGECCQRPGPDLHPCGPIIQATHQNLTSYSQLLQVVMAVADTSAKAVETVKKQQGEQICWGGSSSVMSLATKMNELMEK

These are yes or no findings as the source states them, for the method shown. In cells and extracts the contact can be indirect. Here binding means that the protein was enriched with, or labelled near, the bait; the list need not be complete. Tags and fused reporters may be left off the sequences shown.

The target of the test is T1, H. sapiens HAUS8-HIS8, N-clamp fragment (H. sapiens) (UniProt Q9BT25).
T1 sequence: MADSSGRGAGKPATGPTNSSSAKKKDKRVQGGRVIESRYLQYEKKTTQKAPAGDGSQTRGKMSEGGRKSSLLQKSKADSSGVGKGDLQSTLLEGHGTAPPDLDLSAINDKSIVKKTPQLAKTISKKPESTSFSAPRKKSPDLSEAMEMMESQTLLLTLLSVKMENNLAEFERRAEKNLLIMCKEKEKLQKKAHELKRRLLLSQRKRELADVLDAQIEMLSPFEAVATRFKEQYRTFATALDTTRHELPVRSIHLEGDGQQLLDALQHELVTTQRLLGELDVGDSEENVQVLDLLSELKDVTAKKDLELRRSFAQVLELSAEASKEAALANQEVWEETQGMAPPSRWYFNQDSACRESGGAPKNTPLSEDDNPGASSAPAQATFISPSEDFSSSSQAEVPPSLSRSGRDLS
Kind of test: co-expression and co-purification (His-affinity, SEC, anion exchange), checked by mass spectrometry and negative stain EM; four subunits co-expressed in E. coli; Ni-NTA capture through HAUS7-EGFP-HIS8 and HAUS8-HIS8 from the lysate, Superose 6 SEC, Capto HiRes Q.

As to “H. sapiens HAUS7-EGFP-HIS8, N-clamp fragment (from UniProt Q99871 1-358) (domain or fragment)”, the binding result is “binds”.
